{"source": "patent US20250188092A1", "about": "“RIFAMYCIN ANALOGS” (THE REGENTS OF THE UNIVERSITY OF MICHIGAN, priority 2021, published 2025)", "experiment": "Mouse acute efficacy study: mice weight and adverse effects", "conditions": "3-week treatment period", "note": "Some results were stated once for a whole list of compounds, not compound by compound."}
{"smiles": "CO[C@H]1/C=C/O[C@@]2(C)Oc3c(C)c(O)c4c(=O)c(c5oc6cc(N7CCN(CC(C)C)CC7)cc(OCc7ccc(CN8CCOCC8)cc7)c6nc-5c4c3C2=O)NC(=O)/C(C)=C\\C=C\\[C@H](C)[C@H](O)[C@@H](C)[C@@H](O)[C@@H](C)[C@H](OC(C)=O)[C@@H]1C", "note": "[Compound 17e, (7S,9E,11S,12R,13S,14R,15R,16R,17S,18S,19E,21Z)-2,15,17-Trihydroxy-11-methoxy-3,7,12,14,16,18,22-heptamethyl-30-[4-(2-methylpropyl)piperazin-1-yl]-32-({4-[(morpholin-4-yl)methyl]phenyl}methoxy)-6,23,37-trioxo-8,27,38-trioxa-24,34-diazahexacyclo[23.11.1.1^4,7.0^5,36.0^26,35.0^28,33]octatriaconta-1(36)2,4,9,19,21,25,28,30,32,34-undecaen-13-yl acetate]", "values": [{"measurement": "weight gained over treatment", "result": "0.6-0.7 gm"}]}
